# PubChem BioAssay AID652259, Drosophila RNAi Screening Center | 2013
# Aim: 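Identify new Wingless signalling regulators in fly cells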 (primary screen)
# System: Drosophila clone 8 imaginal disc epithelial cells
# Reagents: long dsRNA against Drosophila genes
# Conditions: pathway stimulated by co-transfected Wingless expression plasmid
# Measured: 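Dual luciferase reads per well after Wingless plasmid stimulation: reporter firefly light and Renilla control light; activity is firefly divided by Renilla, a ratio not deposited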
# Direction: firefly reporter light: higher = more Wg reporter light, before normalisation; Renilla control light: higher = more transfected or surviving cells
# Call rule: 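Strong candidates differ from their plate mean by at least two out of four per-plate statistical tests; weak candidates meet just one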
# Calls: active = candidate regulator (raises or lowers reporter); inactive = not a candidate
# In all, the deposit lists about 22,000 reagents; below is an unselected part of those that have a named target and a result. Of all reagents, 233 (1.1%) are marked active. 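Light values are raw, unnormalised plate reads; the ratio scores behind the reporter calls were not deposited.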 A plus sign joins genes that one reagent is predicted to hit. Not stated in the record: the amount of reagent, the time to read-out, the dose of the treatment.
gene,amplicon,"reporter change call, replicate 1","firefly reporter light, replicate 1","firefly reporter light, replicate 2","Renilla control light, replicate 1","Renilla control light, replicate 2",Outcome
slmo + CG34179,DRSC03143,,15314,,6024,,inactive
ttm3 (GeneID 35437),DRSC03736,,2530,7851,843,3581,inactive
CG18585 (GeneID 34041),DRSC02678,,10496,,4469,,inactive
CG13168 (GeneID 36327),DRSC06295,,3945,,1680,,inactive
Task7 (GeneID 41125),DRSC16477,,9552,,3290,,inactive
CG15099 (GeneID 37176),DRSC06528,,14640,,5370,,inactive
babo (GeneID 35900),DRSC07581,,2602,3905,962,1994,inactive
asRNA:CR43463 + Pgant35A,DRSC03557,,3717,9836,1529,4672,inactive
CG18278 + CG30059,DRSC05418,,21493,,18197,,inactive
CG6276 (GeneID 41855),DRSC16007,,6368,,2072,,inactive
LamC (GeneID 36615),DRSC07453,,13880,,2818,,inactive
CG1647 (GeneID 43401),DRSC15134,,2262,8828,752,1872,inactive
Gr9a (GeneID 318158),DRSC22506,,8.78e5,8.93e5,3.27e5,1.75e5,inactive
swa (GeneID 31580),DRSC18842,,2512,5456,752,1686,inactive
CG2003 (GeneID 43761),DRSC15411,,18573,,11041,,inactive
Jon44E (GeneID 35853),DRSC07216,,2099,5196,656,2171,inactive
CG13707 (GeneID 38583),DRSC08316,,1570,10826,861,3339,inactive
brp (GeneID 35977),DRSC06245,,2821,8169,742,3223,inactive
brp (GeneID 35977),DRSC06246,,2667,6509,506,2497,inactive
brp (GeneID 35977),DRSC06801,,3241,8961,617,3081,inactive
brp (GeneID 35977),DRSC21893,,5.27e5,5.37e5,1.43e5,1.44e5,inactive
CG1998 (GeneID 32300),DRSC19829,,25616,,15836,,inactive
CG33631 (GeneID 3771784),DRSC12763,,4603,,1857,,inactive
MAGE (GeneID 40860),DRSC12504,,13735,,3207,,inactive
CG15601 (GeneID 32509),DRSC19670,,25704,,8786,,inactive
CG17159 + CG17162,DRSC20899,,15541,,8769,,inactive
CG17159 + CG17162,DRSC20900,,46755,,9571,,inactive
vig (GeneID 34885),DRSC03630,,4160,9249,2428,4610,inactive
vig (GeneID 34885),DRSC03631,,15489,,1088,,inactive
vig (GeneID 34885),DRSC21672,,7.51e5,7.90e5,1.89e5,1.57e5,inactive
Spn88Eb (GeneID 41829),DRSC16093,,5257,,1578,,inactive
Alp8 (GeneID 37540),DRSC04353,,3915,11251,1160,4871,inactive
Ktch (GeneID 43681),DRSC15094,,4370,,2292,,inactive

Next part, starting with the last 4 of the part before.
gene,amplicon,"reporter change call, replicate 1","firefly reporter light, replicate 1","firefly reporter light, replicate 2","Renilla control light, replicate 1","Renilla control light, replicate 2",Outcome
vig (GeneID 34885),DRSC21672,,7.51e5,7.90e5,1.89e5,1.57e5,inactive
Spn88Eb (GeneID 41829),DRSC16093,,5257,,1578,,inactive
Alp8 (GeneID 37540),DRSC04353,,3915,11251,1160,4871,inactive
Ktch (GeneID 43681),DRSC15094,,4370,,2292,,inactive
rk (GeneID 34819),DRSC03602,,1914,6253,1130,3341,inactive
Tbcc (GeneID 319048),DRSC00223,,15077,,7945,,inactive
CG43867 (GeneID 31031),DRSC17582,,2677,,1232,,inactive
CG43867 (GeneID 31031),DRSC17836,,24745,,12970,,inactive
CG43867 (GeneID 31031),DRSC17837,,20678,,11968,,inactive
CG43867 (GeneID 31031),DRSC17942,,21878,6.65e5,18390,2.81e5,inactive
CG43867 (GeneID 31031),DRSC17943,,17066,,14914,,inactive
lawc (GeneID 318164),DRSC22531,,1.05e6,1.16e6,97320,53056,inactive
CG4462 (GeneID 42376),DRSC15583,,2140,5792,1031,1643,inactive
mat (GeneID 38107),DRSC08376,,9045,,4928,,inactive
mat (GeneID 38107),DRSC22841,,4.74e5,4.98e5,2.07e5,1.54e5,inactive
lectin-28C (GeneID 53542),DRSC03010,,2585,7491,833,3872,inactive
dpr4 (GeneID 3346160),DRSC14531,,19225,,4608,,inactive
dpr4 (GeneID 3346160),DRSC14929,,23570,,4866,,inactive
Oatp33Eb (GeneID 34662),DRSC02955,,3595,10339,1424,4728,inactive
btl (GeneID 39564),DRSC11331,,5929,,2486,,inactive
CG16974 (GeneID 34713),DRSC02551,,13283,,4376,,inactive
mGluR (GeneID 43838),DRSC17215,,13753,,9596,,inactive
CG12560 (GeneID 34092),DRSC02174,,2369,7442,792,3565,inactive
Atac3 (GeneID 38055),DRSC08579,,5312,,2315,,inactive
imd (GeneID 44339),DRSC05928,,13323,,4480,,inactive
CG31093 (GeneID 43116),DRSC15689,,11145,,14322,,inactive
rut (GeneID 32406),DRSC20367,,17552,,3402,,inactive
iav (GeneID 31621),DRSC18363,,21654,,7559,,inactive
CanA1 (GeneID 43670),DRSC16600,,10937,,3356,,inactive
Fs(2)Ket (GeneID 35336),DRSC03328,Wg reporter activity raised,17600,,930,,active
CG12679 (GeneID 33031),DRSC20493,,14864,,9105,,inactive
CG12883 (GeneID 43326),DRSC14570,,6592,,2058,,inactive
ndl (GeneID 38738),DRSC11374,,1769,6709,1016,2656,inactive
CG17687 (GeneID 39495),DRSC10279,,5255,,2209,,inactive
Naa60 (GeneID 39142),DRSC10301,,7468,,2551,,inactive
GstT2 (GeneID 246386),DRSC06244,,2145,6944,928,3620,inactive
corn (GeneID 38786),DRSC11021,,5986,,1840,,inactive
corn (GeneID 38786),DRSC21943,,5.34e5,5.40e5,1.68e5,1.85e5,inactive
CG14007 (GeneID 33799),DRSC02339,,1572,6618,758,2512,inactive
Tsen2 (GeneID 318956),DRSC01557,,21107,,9016,,inactive
Cpr78Cb (GeneID 40353),DRSC11847,,12978,,4096,,inactive
Nfs1 (GeneID 34613),DRSC02154,,8081,,1543,,inactive
CG32369 (GeneID 38873),DRSC10042,,2178,7276,1108,2364,inactive
CG32369 (GeneID 38873),DRSC10834,,7394,,3114,,inactive
